Patent US20250281573A1
Results are given in words; binding and its absence hold for the method and conditions named. For some assays here: Binding seen in cells or lysates may run through a third protein. Some binding calls cover weakened binding; strength is not graded here. For some assays here: Tags and fused reporters may be left off the sequences shown. One block for each binder: values may come before it.

Sequences of proteins named here, by UniProt entry; tags and fusion partners are left off.
UniProt P09874: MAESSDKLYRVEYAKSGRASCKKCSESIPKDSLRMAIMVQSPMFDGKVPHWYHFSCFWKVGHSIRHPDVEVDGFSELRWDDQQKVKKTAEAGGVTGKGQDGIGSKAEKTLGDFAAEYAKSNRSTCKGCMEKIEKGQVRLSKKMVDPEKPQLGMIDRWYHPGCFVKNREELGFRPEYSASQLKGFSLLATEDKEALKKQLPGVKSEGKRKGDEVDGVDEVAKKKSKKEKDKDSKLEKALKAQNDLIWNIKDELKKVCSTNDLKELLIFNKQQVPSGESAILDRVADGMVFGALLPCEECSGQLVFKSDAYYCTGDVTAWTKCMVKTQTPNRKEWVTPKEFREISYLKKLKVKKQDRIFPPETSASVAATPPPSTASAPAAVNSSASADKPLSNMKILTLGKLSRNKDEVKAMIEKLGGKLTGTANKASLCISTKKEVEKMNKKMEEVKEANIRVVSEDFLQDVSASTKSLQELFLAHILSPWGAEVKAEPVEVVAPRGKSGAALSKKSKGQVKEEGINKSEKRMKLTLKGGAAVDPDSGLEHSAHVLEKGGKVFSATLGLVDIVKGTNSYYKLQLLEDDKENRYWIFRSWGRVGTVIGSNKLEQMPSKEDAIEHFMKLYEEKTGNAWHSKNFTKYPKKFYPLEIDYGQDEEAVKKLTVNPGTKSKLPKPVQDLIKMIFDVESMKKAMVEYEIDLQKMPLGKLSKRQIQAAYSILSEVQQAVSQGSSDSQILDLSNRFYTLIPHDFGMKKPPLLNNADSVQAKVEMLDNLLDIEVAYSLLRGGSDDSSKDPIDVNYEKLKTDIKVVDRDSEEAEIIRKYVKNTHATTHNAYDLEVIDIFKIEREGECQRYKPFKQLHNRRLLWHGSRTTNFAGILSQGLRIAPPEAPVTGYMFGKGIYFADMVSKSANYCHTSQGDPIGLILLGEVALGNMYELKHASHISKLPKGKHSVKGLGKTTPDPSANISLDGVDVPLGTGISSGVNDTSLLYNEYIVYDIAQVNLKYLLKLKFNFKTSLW

Columns and labels:
[1] = molecular target: poly (ADP-ribose) polymerase-1 (PARP-1) (UniProt P09874); test: immunoprecipitation of PARP-1 from SH-SY5Y cells co-transfected with PARP-1, AIMP2 and DX2 plasmids (FIG. 7A)
[2] = molecular target: poly (ADP-ribose) polymerase-1 (PARP-1) (UniProt P09874); test: PARP-1 pull-down from transfected SH-SY5Y cells, immunoblot (FIG. 7A)
[3] = molecular target: poly (ADP-ribose) polymerase-1 (PARP-1) (UniProt P09874); test: summary of PARP-1 immunoprecipitation experiments in SH-SY5Y cells
[4] = molecular target: T1, GFP- or Myc-tagged AIMP2 (Homo sapiens (Human)) (UniProt Q13155); test: co-immunoprecipitation of GFP- and Myc-tagged proteins from HEK 293 cells (FIG. 7D-7E)
T1 sequence: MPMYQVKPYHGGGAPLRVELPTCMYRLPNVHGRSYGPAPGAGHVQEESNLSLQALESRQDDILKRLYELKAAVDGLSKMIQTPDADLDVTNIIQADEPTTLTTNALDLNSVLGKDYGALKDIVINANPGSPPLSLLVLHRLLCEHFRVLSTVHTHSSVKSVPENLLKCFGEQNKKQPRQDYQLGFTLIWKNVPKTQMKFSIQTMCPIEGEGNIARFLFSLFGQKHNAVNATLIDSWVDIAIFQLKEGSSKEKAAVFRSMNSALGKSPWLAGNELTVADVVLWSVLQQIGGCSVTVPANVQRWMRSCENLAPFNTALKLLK

[5] = molecular target: T1, GFP- or Myc-tagged AIMP2 (Homo sapiens (Human)); test: co-immunoprecipitation of GFP-/Myc-tagged proteins from HEK 293 cells (FIG. 7D-7E)
TRAF2 [6] = molecular target: T2, TRAF2 (UniProt Q12933); test: TRAF2 immunoprecipitation from transfected HEK293 cells, anti-Myc immunoblot (FIG. 9A)
T2 sequence (looked up): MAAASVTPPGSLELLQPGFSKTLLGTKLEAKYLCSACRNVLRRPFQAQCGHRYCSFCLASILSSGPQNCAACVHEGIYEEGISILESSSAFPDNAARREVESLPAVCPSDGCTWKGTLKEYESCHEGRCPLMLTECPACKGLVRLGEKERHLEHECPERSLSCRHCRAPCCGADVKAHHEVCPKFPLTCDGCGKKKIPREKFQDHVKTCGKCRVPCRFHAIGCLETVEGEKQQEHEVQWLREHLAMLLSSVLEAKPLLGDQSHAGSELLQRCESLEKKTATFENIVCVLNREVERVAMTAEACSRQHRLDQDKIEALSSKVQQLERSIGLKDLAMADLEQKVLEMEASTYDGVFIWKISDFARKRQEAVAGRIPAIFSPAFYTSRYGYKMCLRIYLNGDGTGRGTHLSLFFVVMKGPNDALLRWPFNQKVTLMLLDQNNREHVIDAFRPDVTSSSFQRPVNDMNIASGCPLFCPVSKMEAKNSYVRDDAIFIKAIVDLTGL

TRAF2 [7] = molecular target: T2, TRAF2; test: TRAF2 co-immunoprecipitation from transfected HEK293 cells

B1: AIMP2-DX2 (exon 2-deleted AIMP2 variant), expressed from a transfected plasmid (protein)
chain: MPMYQVKPYHGGGAPLRVELPTCMYRLPNVHGRSYGPAPGAGHVQDYGALKDIVINANPASPPLSLLVLHRLLCEHFRVLSTVHTHSSVKSVPENLLKCFGEQNKKQPRQDYQLGFTLIWKNVPKTQMKFSIQTMCPIEGEGNIARFLFSLFGQKHNAVNATLIDSWVDIAIFQLKEGSSKEKAAVFRSMNSALGKSPWLAGNELTVADVVLWSVLQQIGGCSVTVPANVQRWMRSCENLAPFNTALKLLK
binding [1]: binds | binding [2]: binds | binding [3]: binds

B3: AIMP2 (aminoacyl tRNA synthase complex-interacting multifunctional protein 2) (protein)
chain: T1 sequence
binding [1]: binds | binding [2]: binds | binding [3]: binds

B4: GFP- or Myc-tagged AIMP2 (protein, not shown: large carriers)
chain: T1 sequence
binding [4]: binds

Results, then the binder that gave them:

binding [4]: binds | binding [5]: binds
B2: GFP- or Myc-tagged DX2 (protein, not shown: large carriers)
chain: B1 chain

binding (TRAF2 [6]): binds | binding (TRAF2 [7]): binds
B5: Myc-tagged AIMP2 (protein, not shown: small tags and cut ends)
chain: T1 sequence
